The source of these data is patent publication US20050215770A1.

Results are given in words; binding and its absence hold for the method and conditions named. Some results given as binding are weak or reduced against the parent protein; the word gives no strength. Tags and fused reporters may be left off the sequences shown.

First the molecules themselves.
T1: Recombinant soluble human Flag-tagged NogoR (amino acids 1 to 309 of SEQ ID NO:2) (human) (UniProt Q9BZR6)
T1 sequence (chain, biotinylated with Sulfo-NHS-LC-Biotin): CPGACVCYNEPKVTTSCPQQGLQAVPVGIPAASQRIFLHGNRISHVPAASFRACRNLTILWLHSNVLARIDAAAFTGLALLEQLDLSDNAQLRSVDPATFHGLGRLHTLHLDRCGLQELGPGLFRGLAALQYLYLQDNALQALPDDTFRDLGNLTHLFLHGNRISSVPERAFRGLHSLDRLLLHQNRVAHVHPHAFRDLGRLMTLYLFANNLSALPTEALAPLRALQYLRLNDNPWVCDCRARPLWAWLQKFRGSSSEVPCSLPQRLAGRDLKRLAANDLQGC

B1: NGF2G10 (scFv)
scFv: EVQLVESGAEVKKPGASVKVSCKTSGYIFSTYGITWVRQAPGQGLEWMGWISSKNGNTNYAQKFQGRVTMTTDTSTSTAYMELSSLTSDDTAVYYCARDSAYYYDSSGIGNWFDPWGKGTLVTVSSGGGGSGGGGSGGGGSAQAVLTQPSSVSGAPGQRVTISCTGSSSNIGAGYDVHWYQKLPDTGPKLLIFGNVIRPSGVPDRFSGSKSGTSASLAITGLQAEDEAEYFCQSYDTTLSGSVVFGGGTKLTVLG
B2: NGF3H03 (scFv)
scFv: EVQLVETGGGVVQPGRSLRLSCAASGFGFRNSAMHWVRQAPGKGLEWVALIWSDGITKFYADSVKGRLTVSRDNSESTLYLQINSLRDEDTAVYYCARDGHYSVGFGFDVWGQGTMVTVSSGGGGSGGGGSGGGGSALNFMLTQPHSVSESPGKTVTISCTRSSGSIASNYVQWYQQRPGSAPTTVIYEDNQRPSGVPDRFSGSIDSSSNSASLTISGLKTEDEADYYCQSYDSSNQGVFGGGTKLTVLG
B3: NGF3D11 (scFv)
scFv: EVQLVESGAEVKKPGSSVKVSCHVSGGTFGGNAFNWVRQAPGQGLEWMGRVIPIYGTSNYAQRFQGRVSITADESTDTAYMELSSLTSDDTAIYYCARDPGSGPYLSYFDSWGRGTLVTVSSGGGGSGGGGSGGGGSAQAVLTQPSSASGTPGQRVTISCSGTYSNIASNTVNWYQQLPGTAPKLLIYNNRQRPSGVPDRFSGSKSGTSASLAISGLQSEDETDYFCAAWDDALNGYVFGTGTKVTVLG
B4: NGF2F11 (scFv)
scFv: QVQLVESGGGLVQPGGSLRLSCAASGFTFSSYWMSWVRQAPGKGLEWVANIKQDGSEKYYVDSVKGRFTISRDNAKSSLYLQMNSLRAEDTAVYYCARPQEPPSSLIAHWGQGTMVTVSSGGGGSGGGGSGGGGSAQSVVTQPPSVSAASGQKVTISCSGRTSNIGNNYVSWYQQIPGTAPKLLLYDNNKRPSGIPDRFSGSKSGTIAILGITGLQTGDEADYFCGVWDSSLSSYVFGSGTKVTVLG
B5: NGF3C11 (scFv)
scFv: QVQLQESGPGLVKPSGTLSLTCAVTGDSITSNNWWSWVRQAPGKGLEWIGDVYHTGTTNYNPSLKSRVTISVDESKNQFSLKVTSVTTADTAVYYCAREEYDVWSGPMDVWGQGTLVTVSSGGGGSGGGGSGGGGSAQAVLTQPSSVSGAPGQRVSISCTGSSSNIGAGYDVHWYQQLPGTAPKLLIYGNINRPSGVPDRFSGSKSGTSASLAITGLQAEDEADYYCQSYDSSLRAAVFGGGTKLTVLG
B6: NGF0282 (scFv)
scFv: B1 scFv
B7: NGF0259 (scFv)
scFv: QVQLVQSGGGVVQPGRSLRLSCAASGLSFSSYGMHWVRQAPGKGLEWVAVIWFDGSNKYYADSVKGRFTISRDTSKNTLYLQMNSLRVEDTAVYYCAGEVRGSFGEFDYWGRGTMVTVSSGGGGSGGGGSGGGGSAQSVLTQPPSVSVAPGKTARITCGGNNVESKSVQWYQQKSGQAPVLVIYYNSYRPSGIPERFSGSNSGNTATLTISRVEAGDAADYYCQVWDSTTDHYVFGSGTKVTVLG
B8: NGF0190 (scFv)
scFv: QVQLQQSGPGLVKPSETLSLTCTVSGDSITSYYWSWVRQPPGKTLEWIGYIFDTRTTKYNPSLKSRVTISADTSKNQFSLKLSSVTAADTAVYYCARDAGTIFDYWGQGTMVTVSSGGGGSGGGGSGGGGSAQSVLTQPPSVSVAAGQTARITCGEANIGRRSVHWYQRRPGQAPLMVIYYDTARRSGIPERFSGSNSGDTATLTISRVEAGDEADYYCQAWDFSSDHPVFGGGTKVTVLG
B9: NGF0347 (scFv)
scFv: B3 scFv
B10: NGF0271 (scFv)
scFv: B4 scFv
B11: NGF0114 (scFv)
scFv: EVQLVQSGAEVKKPGSSVKVSCKASGDTSSEYSITWVRQVPGQGLEWMGGIIPIFGATYYAQNFQGRVTISADESTSTAYMELGSLRSGDTAVYYCATVIPPTIGGVTHDSEGMDVWGRGTLVTVSSGGGGSGGGGSGGGGSAQSVLTQPPSASGTPGQRVTISCSGSSSNIGSNYVYWYQQLPGTAPKLLIYRNNQRPSGVPDRFSGSKSGTSASLAISGLRSEDEADYYCAAWDDGHNGWVFGGGTKVTVLG
B12: NGF0186 (scFv)
scFv: QVQLVQSGGGLLQPGRSLRLSCAGSGFSFRDHALSWFRQAPGKGLEWVGFIRSKGYGGTTEYAASMAGRLNISRDDSKSIAYLQVNSLKTEDTAVYYCSRDSDYYASSGMGYAFDMWGKGTMVTVSSGGGGSGGGGSGGGGSAQAVLTQPSSVSGAPGQRVTIPCTGSSSNIGAGYGVHWYQQLPGTAPKLLIYDSDKRPSGVPDRFSGSKSGSSGSLAITGLQPEDEADYYCQSYDSSLSGSNVFGTGTKVTVLG
B13: NGF0175 (scFv)
scFv: QVQLQESGPGLVKPSETLSLTCTVSGDSIGSSIYYWAWIRQPPGKGLEWIGRIYYSGTTNYNPSLKSRVTMSVDTSKNQFSLKLSSVTAADTAVYYCARSKGTKWERREFDYWGRGTMVTVSSGGGGSGGGGSGGGGSAQAVLTQPSSASGTPGQTVTISCSGSSSNIGSNPAHWYQQFPGTAPTLIIYYDGRRPSGVPDRFSGSKSGTSASLAISGLQSEDEADFYCASWDDNLNEYVFGTGTKVTVLG
B14: NGF0134 (scFv)
scFv: EVQLVQSGAEVKKPGESLKISCKGSGYNITNHWIAWVRQMPGKGLEWMGMIYPDDSDTRYSPSFQGQVTMSADKSINTAHLQWRSLKASDTAMYYCARHAHYDGSGYYYFDYWGKGTMVTVSSGGGGSGGGGSGGGGSAQSVLTQPPSVSGAPGQRVTISCTGSRSNIGAGYDVHWYQQLPGTAPKVLIFGNSNRPSGVLDRFSGSKSGTSASLAITGLQAEDEADYYCRSYDSSMSGSRVFGTGTKVTVLG
B15: NGF0115 (scFv)
scFv: EVQLVQSGAEVKKPGESLRISCKGSGYSFSSYWISWVRQVPGKGLEWMGRIDPSDSYTNYSPSFQGHVTISADKSISTAYLHWSSLKASDTAMYYCATLASADTGMVTDYKYYDMDVWGRGTLVTVSSGGGGSGGGGSGGGGSAQSVVTQPPSVSAAPGQKVTISCSGSNSNIGKNYVSWYQQLPGTAPKLLISDNNARPSGIPDRFSGSKSGASGTLDITGLQTGDEAAYYCKSWDSSLRAEVFGGGTKLTVLG
B16: NGF0121 (scFv)
scFv: EVQLVQSGAEVKKSGSSVKVSCKASGDIFTNYAINWVRQAPGQGLEWMGRILPLFGTTNYAQRFQGRITITADESTGTAYMELSSLKSDDTAVYYCARPLSGDYYDTSGYHWWGKGTLVTVSSGGGGSGGGGSGGGGSAQSVLTQPPSASGTPGQRVTISCSGRSGNIGTNAVNWYQQLPGAAPKLIIYSNSQRPSGVPHRFSASRSGTSASLAISGLQSEDEADYYCSAWDDSLDGVVFGGGTKVTVLG
B17: NGF0128 (scFv)
scFv: QVQLQQSGPGLVRPSQTLSLACTVSGDSISSGDYYWTWIRQHPGKGLEWIGYISTRGSPYYNPSFMNRVAISIDSSKNQFSLNLSSVTAADTAVYYCTRETQHTSIFGVIHNWLDPWGQGTLVTVSSGGGGSGGGGSGGGGSAQAVLTQPSSASGTPGQRVSISCSGSSSNIGSNTVNWYQQLPGTAPKLLIYSGNQRPSGVPDRFSGSKSGTSASLAISGLQSEDEADYYCAAWDDSLNNLVFGPGTKVTVLG
B18: NGF0145 (scFv)
scFv: QLQLQESGSGLVKPSQTLSLTCAVSGGSISSGDYSWSWIRQPPGKGLEWIGYIYHSGSTYYNPSLKSRVTISIDRSKNQFSLKLSSVTAADTAVYYCARVGDYKEIDAFDIWGKGTLVTVSSGGGGSGGGGSGGGGSAQPVLTQPPSASGTPGQRVTISCSGSSSNIGTNTVNWYQQLPGTAPKLLIYSNTQRPSGVPDRFSGSKSGTSASLAISGLQSEDEADYYCGAWDDSLISGVFGGGTKLTVLG
B19: NGF0238 (scFv)
scFv: EVQLVQSGAEVKKPGSSVKVSCKASGGTLSSYAINWVRQAPGQGLEWMGQIIPMFGTMNYAQKFQGRVTISADESTGTAYMELSSLRYDDTATYYCAREVSGTRNYYYYGLDVWGQGTLVTVSSGGGGSGGGGSGGGGSAQAVLTQPSSVSGAPGQRVTIPCTGSSSNIGAGYDVHWYQHLPGTAPKLLIYGNINRPSGVPDRFSGSKSGTSASLAITGLQAEDEADYYCQSYDNRLSVSVVFGGGTQLTVLS

The target of the first assay is T1, Recombinant soluble human Flag-tagged NogoR (amino acids 1 to 309 of SEQ ID NO:2) (human). In words: ECL phage screen (Example 1).
As for B1, the binding entry is on record as “binds”.
On the same count and under the same terms, in the case of B2 it was “binds”; in that of B3, “binds”.
For B4, the binding entry is given as “binds”.
On the same count and under the same terms, to B5 belongs “binds”.

A further assay has the same target. In words: ECL phage screen on biotin-rHuNOGOSR-Flag (positive: 5-fold above background).
B6: the binding entry is “binds”.
On the same count and under the same terms, in the case of B7 it was “binds”; in that of B8, “binds”.
The same measure, in the same setting: in the case of B9 it was “binds”; in that of B10, “binds”; in that of B11, “binds”.
Regarding B12, the binding result is on record as “binds”.
The same measure, in the same setting: in the case of B13 it was “binds”; in that of B14, “binds”; in that of B15, “binds”.
Regarding B16, the binding result was “binds”.
The same measure, in the same setting: in the case of B17 it was “binds”; in that of B18, “binds”.
The same measure, in the same setting: in the case of B19 it was “binds”.
